{"source": "PubChem BioAssay AID1259415", "about": "(National Center for Advancing Translational Sciences (NCATS), 2018)", "note": "The whole screen tested about 410,000 compounds, of which about 18,000 (4.4%) were called active. The shares of active, inactive and inconclusive entries below differ from those in the screen. Cut-off read from the data, not from the text of the source: active = activity change below about -60%; inconclusive = no clear call, values can overlap the other calls; inactive = above about -39%."}
{"test": "qHTS Assay for inhibitors of the human cytomegalovirus (HCMV); note: % is set by controls: 0 for no effect and ±100 for the full control effect", "details": "HFF cells, HCMV-luciferase reporter, 72 h; at 57.5 µM; active compounds read low", "summary_of_the_method": "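Luciferase read-out from HCMV-luciferase-infected HFFs (MOI 1 PFU/cell) 72 h post infection at 37C; compounds added after 16 h cell attachment; activity normalized between buffer-only basal and Salinomycin (10uM) inhibitor controls.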"}
{"molecule": "COc1ccc(C2c3c(-c4c(C)cc(C)cc4O)n[nH]c3C(=O)N2Cc2ccco2)cc1", "note": "(stereo not drawn)", "activity change, negative = inhibition": "inconclusive: -53.2%"}
{"molecule": "CC(CC(=O)Nc1ccc2c(c1)c(=O)n(C)n2-c1ccc2ccccc2c1)C(F)(F)F", "note": "(stereo not drawn)", "activity change, negative = inhibition": "inconclusive: -56.7%"}
{"molecule": "Cc1cccc(CN2CCN(Cc3ccc(-n4cccn4)cc3)CC2CCO)n1", "note": "(stereo not drawn)", "activity change, negative = inhibition": "inconclusive: -50.6%"}
{"molecule": "COCCN(CCOC)C(=O)c1ccc(CSc2nc3ccccc3s2)cc1", "activity change, negative = inhibition": "inconclusive: -46.9%"}
{"molecule": "COc1ccc(S(=O)(=O)N2CCOC2CNC(=O)C(=O)NCCc2ccccc2)cc1OC", "note": "(stereo not drawn)", "activity change, negative = inhibition": "inconclusive: -46.7%"}
{"molecule": "COC(=O)[C@@]1(Cc2ccccc2)[C@H]2C(=O)N(Cc3ccccc3)C(=O)[C@H]2[C@H]2CN=C(SCc3ccc(Cl)cc3)N21", "activity change, negative = inhibition": "inconclusive: -45.7%"}
{"molecule": "CCCC(=O)Nc1ccc(C(=O)N/N=C/c2ccc[nH]2)cc1", "activity change, negative = inhibition": "inconclusive: -50.4%"}
{"molecule": "Cc1cc(C(=O)Nc2cccc(C)c2C)c2ccccc2n1", "activity change, negative = inhibition": "inconclusive: -50.8%"}
{"molecule": "C=CCn1c(SCC(=O)c2cccs2)nc2sc(C)c(C)c2c1=O", "activity change, negative = inhibition": "inconclusive: -42.2%"}
{"molecule": "COc1cccc2c(=O)cc(C)n(CC(=O)Nc3cccc(C)c3)c12", "activity change, negative = inhibition": "inconclusive: -51.2%"}
{"molecule": "Nc1cc(C(=O)OCC(=O)N2CCC(Cc3ccccc3)CC2)ccc1Cl", "activity change, negative = inhibition": "active: -64.6%"}
{"molecule": "C=CCn1cc(C(=O)NCCCN(CC)CC)c(=O)c2cc(S(=O)(=O)N3CCC(C)CC3)ccc21", "activity change, negative = inhibition": "inconclusive: -54%"}
{"molecule": "CC(C)CNS(=O)(=O)c1cc(C(=O)OC2CCOC2=O)c(Cl)cc1Cl", "note": "(stereo not drawn)", "activity change, negative = inhibition": "inconclusive: -40.9%"}
{"molecule": "Nc1cccc(-c2cn3ccsc3n2)c1", "activity change, negative = inhibition": "inconclusive: -51.7%"}
{"molecule": "CCc1c(C)sc(NC(=O)C2CC2c2ccccc2)c1C(N)=O", "note": "(stereo not drawn)", "activity change, negative = inhibition": "inconclusive: -57.7%"}
{"molecule": "CCn1nnnc1-c1ccc(OC)c(S(=O)(=O)Nc2ccc(OC)cc2)c1", "activity change, negative = inhibition": "inconclusive: -48.1%"}
{"molecule": "CC(C)C[C@H]1COc2cc(Br)ccc2S(=O)(=O)N1Cc1ccc(F)cc1F", "activity change, negative = inhibition": "inactive: 38.2%"}
{"molecule": "CN1C(=O)CC(N2CCN(c3ncccn3)CC2)C1=O", "note": "(stereo not drawn)", "activity change, negative = inhibition": "inconclusive: -41.6%"}
{"molecule": "Cc1ccc(-n2c(=O)c3ccc(C(=O)NCc4ccccc4Cl)cc3n(Cc3ccccc3F)c2=O)cc1", "activity change, negative = inhibition": "inactive: 5.06%"}
{"molecule": "O=[N+]([O-])c1ccc(/C=N/Nc2ccnc3cc(Cl)ccc23)o1", "activity change, negative = inhibition": "active: -66.1%"}
{"molecule": "CCOC(=O)c1c(-c2ccc(C)cc2)csc1NC(=O)c1nc(SCC)ncc1Cl", "activity change, negative = inhibition": "inactive: 5.3%"}
{"molecule": "Cc1ccc(-c2nc3ccc(Cl)cc3n2OC(C)C(=O)O)cc1", "note": "(stereo not drawn)", "activity change, negative = inhibition": "inactive: 150%"}
{"molecule": "C=CC(=O)NCCCc1cc(C(C)(C)C)c(O)c(C(C)(C)C)c1", "activity change, negative = inhibition": "active: -95.9%"}
{"molecule": "O=C(OCC(=O)c1ccco1)c1ccc2ncsc2c1", "activity change, negative = inhibition": "inactive: 50.2%"}
{"molecule": "COc1cc(/C=N/NC(=O)c2ccncc2)ccc1Oc1ccc([N+](=O)[O-])cn1", "activity change, negative = inhibition": "inconclusive: -41.2%"}
{"molecule": "COC(=O)c1ccc(N(CC(=O)NC2CCCC2)C(=O)CNC(=O)c2cccs2)cc1", "activity change, negative = inhibition": "inconclusive: -58.3%"}
{"molecule": "Fc1ccc(Nc2nnns2)cc1", "activity change, negative = inhibition": "inactive: 21.3%"}
{"molecule": "Cc1cccc(N2CCN(C(=O)c3ccc(CS(=O)Cc4ccc(Cl)cc4)o3)CC2)c1C", "note": "(stereo not drawn)", "activity change, negative = inhibition": "inconclusive: -46.2%"}
{"molecule": "O=C(NN1CCCCC1)c1ccc(COc2ccc(Cl)cc2)cc1", "activity change, negative = inhibition": "inconclusive: -40.7%"}
{"molecule": "CN(C)C(CNC(=O)C1CCN(S(=O)(=O)c2cc(Cl)ccc2Cl)CC1)Cc1ccccc1", "note": "(stereo not drawn)", "activity change, negative = inhibition": "inactive: -26.3%"}
{"molecule": "Cc1nc(C)c(-c2ccc(SCC(=O)Nc3ccc(F)c(F)c3)nn2)s1", "activity change, negative = inhibition": "inconclusive: -50.3%"}
{"molecule": "CCOC(=O)C1=C(C)N=c2s/c(=C/c3cccc([N+](=O)[O-])c3O)c(=O)n2C1c1ccc(OC)cc1OC", "note": "(stereo not drawn)", "activity change, negative = inhibition": "inactive: 14.9%"}
{"molecule": "Cc1ccc(-n2c(O)c(C=Nc3ccccc3-c3n[nH]c(=S)[nH]c3=O)c3ccccc3c2=O)c(C)c1", "activity change, negative = inhibition": "inconclusive: -40.6%"}
{"molecule": "O=C(NCCc1ccccc1)/C(=C/c1ccco1)c1ccccc1", "activity change, negative = inhibition": "inconclusive: -43%"}
{"molecule": "Cc1c(C(=O)NCc2ccccc2C(F)(F)F)sc(=O)n1Cc1ccc2ccccc2c1", "activity change, negative = inhibition": "active: -70.9%"}
{"molecule": "COC1/C=C/C=C(\\C)Cc2cc(O)c(Cl)c(c2)N(C)C(=O)CC(OC(=O)C(C)C)C2(C)OC2C(C)C2CC1(O)NC(=O)O2", "note": "(stereo not drawn)", "activity change, negative = inhibition": "active: -90.6%"}
{"molecule": "COc1ccc(C(C(=O)NC2CCCCC2)N(C(=O)CCl)c2cccc(Cl)c2)cc1", "note": "(stereo not drawn)", "activity change, negative = inhibition": "active: -99%"}
{"molecule": "CN(CC(=O)Nc1ccc(Cl)c(Cl)c1)C(=O)C12CC3CC(CC(C3)C1)C2", "activity change, negative = inhibition": "inactive: -18.8%"}
{"molecule": "Cc1ccc(Nc2c3c(nc4nncn24)CCC3)cc1C", "activity change, negative = inhibition": "active: -88.1%"}
{"molecule": "COc1cc(C2CC(=O)c3c([nH]c(C(=O)OCCOC(C)C)c3C)C2)cc(OC)c1OC", "note": "(stereo not drawn)", "activity change, negative = inhibition": "active: -63.4%"}
{"molecule": "O=C(Nc1ccc(-c2csc(Nc3cccc(C(F)(F)F)c3)n2)cc1)c1ccccc1", "activity change, negative = inhibition": "active: -83%"}
{"molecule": "COc1cccc(NC(=O)CSc2nc3ccccc3c(=O)n2CCCC(=O)N2CCCC2)c1", "activity change, negative = inhibition": "inactive: -13.8%"}
{"molecule": "CC(=NC(C)C)C1=C(O)CCC1=O", "activity change, negative = inhibition": "inconclusive: -50.3%"}
{"molecule": "O=C(CSc1nc2c(oc3ccccc32)c(=O)n1-c1ccccc1F)Nc1ccccc1", "activity change, negative = inhibition": "inactive: 8.82%"}
{"molecule": "Cc1oc(C(C)(C)C)cc1C(=O)N1CCN(C(c2ccccc2)c2ccccc2)CC1", "activity change, negative = inhibition": "inconclusive: -40.8%"}
{"molecule": "S=c1[nH]nc(CNc2ccc(Cl)cc2)n1Cc1ccccc1", "activity change, negative = inhibition": "inconclusive: -44.1%"}
{"molecule": "COc1ccc(Cl)cc1S(=O)(=O)NC(C)C(=O)NCc1cccnc1", "note": "(stereo not drawn)", "activity change, negative = inhibition": "inactive: 0.265%"}
{"molecule": "COC(=O)c1ccccc1C(=O)N(c1ccccc1)c1ccccc1", "activity change, negative = inhibition": "inconclusive: -51.2%"}
{"molecule": "COc1cc(/C=N/NC2=NS(=O)(=O)c3ccccc32)ccc1OC(C)=O", "activity change, negative = inhibition": "inconclusive: -54.6%"}
{"molecule": "CC(C)C[C@H]1COc2cc(N3CCC[C@@H]3CO)ccc2S(=O)(=O)N1", "activity change, negative = inhibition": "inactive: -1.89%"}
{"molecule": "COc1ccc(C(C)(C)C)cc1NS(=O)(=O)c1cccc2cccnc12", "activity change, negative = inhibition": "inconclusive: -46.4%"}
{"molecule": "CN1CCC(OC(=O)c2ccco2)CC1", "activity change, negative = inhibition": "inactive: 0%"}
{"molecule": "CC(C)CCNC(=O)Cn1c(=O)oc2cc(S(=O)(=O)N3CCc4ccccc43)ccc21", "activity change, negative = inhibition": "inconclusive: -48.3%"}
